Reference: the supplement of paper PMC8728848
The list shows a part of the results.

Key:
Assay in all cases: glycan array binding signal (z-score within array); higher = stronger binding
Conditions in all cases: glycan notation: IUPAC condensed, linker removed
[1] = target: Gal(b1-3)GlcNAc(b1-2)Man(a1-3)[Gal(b1-3)GlcNAc(b1-2)Man(a1-6)]Man(b1-4)GlcNAc(b1-4)[Fuc(a1-6)]GlcNAc
Outline: (§1)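 Arrays were curated from the Consortium for Functional Glycomics database, 3228 in total, and kept only where the protein sequence was available. Binding is expressed as a within-array Z-score. This score was averaged across arrays of the same protein sequence at different concentrations or buffers and across linkers, and negative values can be read as non-binding.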

[2] = target: Gal(b1-3)GlcNAc(b1-2)Man(a1-3)[GlcNAc(b1-4)][Gal(b1-3)GlcNAc(b1-2)Man(a1-6)]Man(b1-4)GlcNAc(b1-4)GlcNAc
Outline: as §1

[3] = target: Gal(b1-3)GlcNAc(b1-2)[Gal(b1-3)GlcNAc(b1-6)]Man(a1-6)[Gal(b1-3)GlcNAc(b1-2)Man(a1-3)]Man(b1-4)GlcNAc(b1-4)GlcNAc
Outline: as §1

[4] = target: Gal(b1-3)GlcNAc(b1-3)Gal(b1-3)GlcNAc
Outline: as §1

[5] = target: Gal(b1-3)GlcNAc(b1-3)Gal(b1-4)Glc
Outline: as §1

[6] = target: Gal(b1-3)GlcNAc(b1-3)Gal(b1-4)GlcNAc
Outline: as §1

[7] = target: Gal(b1-3)GlcNAc(b1-3)Gal(b1-4)GlcNAc(b1-2)Man(a1-3)[Gal(b1-3)GlcNAc(b1-3)Gal(b1-4)GlcNAc(b1-2)Man(a1-6)]Man(b1-4)GlcNAc(b1-4)GlcNAc
Outline: as §1

[8] = target: Gal(b1-3)GlcNAc(b1-3)Gal(b1-4)GlcNAc(b1-2)[Gal(b1-3)GlcNAc(b1-3)Gal(b1-4)GlcNAc(b1-6)]Man(a1-6)[Gal(b1-3)GlcNAc(b1-3)Gal(b1-4)GlcNAc(b1-2)Man(a1-3)]Man(b1-4)GlcNAc(b1-4)[Fuc(a1-6)]GlcNAc
Outline: as §1

[9] = target: Gal(b1-3)GlcNAc(b1-3)Gal(b1-4)GlcNAc(b1-3)Gal(b1-4)GlcNAc(b1-2)[Gal(b1-3)GlcNAc(b1-3)Gal(b1-4)GlcNAc(b1-3)Gal(b1-4)GlcNAc(b1-6)]Man(a1-6)[Gal(b1-3)GlcNAc(b1-3)Gal(b1-4)GlcNAc(b1-3)Gal(b1-4)GlcNAc(b1-2)Man(a1-3)]Man(b1-4)GlcNAc(b1-4)[Fuc(a1-6)]GlcNAc
Outline: as §1

[10] = target: Gal(b1-3)GlcNAc(b1-3)Gal(b1-4)GlcNAc(b1-6)[Gal(b1-3)GlcNAc(b1-3)]Gal(b1-4)Glc
Outline: as §1

[11] = target: Gal(b1-3)GlcNAc(b1-3)Gal(b1-4)[Fuc(a1-3)]GlcNAc
Outline: as §1

[12] = target: Gal(b1-3)GlcNAc(b1-3)Gal(b1-4)[Fuc(a1-3)]GlcNAc(b1-6)[Gal(b1-3)GlcNAc(b1-3)]Gal(b1-4)Glc
Outline: as §1

[13] = target: Gal(b1-3)GlcNAc(b1-3)GalNAc
Outline: as §1

[14] = target: Gal(b1-3)GlcNAc(b1-6)Gal(b1-4)GlcNAc
Outline: as §1

[15] = target: Gal(b1-3)GlcNAc(b1-6)GalNAc
Outline: as §1

[16] = target: Gal(b1-3)GlcNAc(b1-6)[Gal(b1-3)]GalNAc
Outline: as §1

[17] = target: Gal(b1-3)GlcNAc6S
Outline: as §1

[18] = target: Gal(b1-3)[Fuc(a1-4)]GlcNAc
Outline: as §1

[19] = target: Gal(b1-3)[Fuc(a1-4)]GlcNAc(b1-2)Man
Outline: as §1

[20] = target: Gal(b1-3)[Fuc(a1-4)]GlcNAc(b1-2)Man(a1-3)[Gal(b1-3)[Fuc(a1-4)]GlcNAc(b1-2)Man(a1-6)]Man(b1-4)GlcNAc(b1-4)[Fuc(a1-6)]GlcNAc
Outline: as §1

[21] = target: Gal(b1-3)[Fuc(a1-4)]GlcNAc(b1-3)Gal(b1-3)[Fuc(a1-4)]GlcNAc
Outline: as §1

[22] = target: Gal(b1-3)[Fuc(a1-4)]GlcNAc(b1-3)Gal(b1-4)[Fuc(a1-3)]GlcNAc
Outline: as §1

[23] = target: Gal(b1-3)[Fuc(a1-4)]GlcNAc(b1-6)GalNAc
Outline: as §1

[24] = target: Gal(b1-3)[GlcNAc(b1-6)]GalNAc
Outline: as §1

[25] = target: Gal(b1-3)[Neu5Ac(a2-6)]GalNAc
Outline: as §1

[26] = target: Gal(b1-3)[Neu5Ac(a2-6)]GlcNAc(b1-4)Gal(b1-4)Glc
Outline: as §1

[27] = target: Gal(b1-3)[Neu5Ac(b2-6)]GalNAc
Outline: as §1

[28] = target: Gal(b1-4)Gal
Outline: as §1

[29] = target: Gal(b1-4)GalNAc(a1-3)[Fuc(a1-2)]Gal(b1-4)GlcNAc
Outline: as §1

[30] = target: Gal(b1-4)GalNAc(b1-3)[Fuc(a1-2)]Gal(b1-4)GlcNAc
Outline: as §1

[31] = target: Gal(b1-4)Glc
Outline: as §1

[32] = target: Gal(b1-4)Glc6S
Outline: as §1

[33] = target: Gal(b1-4)GlcNAc
Outline: as §1

[34] = target: Gal(b1-4)GlcNAc(a1-6)Gal(b1-4)GlcNAc
Outline: as §1

[35] = target: Gal(b1-4)GlcNAc(b1-2)Man
Outline: as §1

[36] = target: Gal(b1-4)GlcNAc(b1-2)Man(a1-3)Man(b1-4)GlcNAc(b1-4)GlcNAc
Outline: as §1

[37] = target: Gal(b1-4)GlcNAc(b1-2)Man(a1-3)[Gal(b1-4)GlcNAc(b1-2)Man(a1-6)]Man(b1-4)GlcNAc(b1-4)GlcNAc
Outline: as §1

B1: Aap brpt (Staphylococcus epidermidis) (protein)
chain: VDGDPITSTEEIPFDKKREFDPNLAPGTEKVVQKGEPGTKTITTPTTKNPLTGEKVGEGEPTEKITKQPVDEIVHYGGEEIKTGHKDEFDPNAPKGSQTTQPGKPGVKNPDTGEVVTPPVDDVTKYGPVDGDPITSTEEIPFDKKREFDPNLAPGTEKVVQKGEPGTKTITTPTTKNPLTGEKVGEGEPTEKITKQPVDEIVHYGGEEIKPGHKDEFDPNAPKGSQEDVPGKPGVKNPDTGEVVTPPVDDVTKYGPVDGDSITSTEEIPFDKKREFDPNLAPGTEKVVQKGEPGTKTITTPTTKNPLTGEKVGEGEPTEKITKQPVDEIVHYGGEQIPQGHKDEFDPNAPVDSKTEVPGKPGVKNPDTGEVVTPPVDDVTKYGPVDGDSITSTEEIPFDKKREFDPNLAPGTEKVVQKGEPGTKTITTPTTKNPLTGEKVGEGKSTEKVTKQPVDEIVEYGPTK
B1 was tested, and the “glycan array binding signal (z-score)” value [1] was 0.208, the “glycan array binding signal (z-score)” value [2] was 0.399 and the “glycan array binding signal (z-score)” value [3] was 1.27. For the same binder, the “glycan array binding signal (z-score)” value [4] was -0.56, the “glycan array binding signal (z-score)” value [5] was 0.371 and the “glycan array binding signal (z-score)” value [6] was -0.346. The “glycan array binding signal (z-score)” value [7] was -0.969, the “glycan array binding signal (z-score)” value [8] was 1.85 and the “glycan array binding signal (z-score)” value [9] was -0.027. The “glycan array binding signal (z-score)” value [10] was 0.374, the “glycan array binding signal (z-score)” value [11] was 0.154 and the “glycan array binding signal (z-score)” value [12] was 0.461. The “glycan array binding signal (z-score)” value [13] was -1.15, the “glycan array binding signal (z-score)” value [14] was 0.584 and the “glycan array binding signal (z-score)” value [15] was 1.73. The “glycan array binding signal (z-score)” value [16] was -0.991, the “glycan array binding signal (z-score)” value [17] was -0.16 and the “glycan array binding signal (z-score)” value [18] was -1.71. For the same binder, the “glycan array binding signal (z-score)” value [19] was 1.38, the “glycan array binding signal (z-score)” value [20] was 0.433 and the “glycan array binding signal (z-score)” value [21] was -0.417. For the same binder, the “glycan array binding signal (z-score)” value [22] was 0.435, the “glycan array binding signal (z-score)” value [23] was -0.864 and the “glycan array binding signal (z-score)” value [24] was 1.05. The “glycan array binding signal (z-score)” value [25] was 0.106, the “glycan array binding signal (z-score)” value [26] was 0.993 and the “glycan array binding signal (z-score)” value [27] was -0.314. For the same binder, the “glycan array binding signal (z-score)” value [28] was -0.164, the “glycan array binding signal (z-score)” value [29] was -0.648 and the “glycan array binding signal (z-score)” value [30] was 1.01. For the same binder, the “glycan array binding signal (z-score)” value [31] was 0.647, the “glycan array binding signal (z-score)” value [32] was -0.697 and the “glycan array binding signal (z-score)” value [33] was -1.05. The “glycan array binding signal (z-score)” value [34] was -0.185, the “glycan array binding signal (z-score)” value [35] was -0.301 and the “glycan array binding signal (z-score)” value [36] was -0.208. For the same binder, the “glycan array binding signal (z-score)” value [37] was -0.887.
